# Measured values taken from the supplement of paper PMC8728848.
# This is one part of the list.
# B1: Epa2 (Candida glabrata) (protein)
# chain: MGSSHHHHHHSSGLVPRGSHMASSKDPTSFPMGCSPQVLKTQPGLAVKLYSYGHPVPGCAYNTYQYPDFPRSGYKKERKLADITGVNGRIDIDLKPNDPCRVLSGNLPSNYNYQNTLTYTNFTMILYGYFQPKVTGYHTFNLEADDLLFMNLGAGNAFDCCRAESTLDNFGNYQSYSIWGTDKATADLTVFLVSGIYYPIRLFYVNRDNNAVLDFSFSTEFNKEIIHDFTSYFFSASDEEQCPGNI
# How the values were obtained:
# Experiment in all cases: glycan array binding signal (z-score within array); higher = stronger binding
# Settings in all cases: glycan notation: IUPAC condensed, linker removed
# [1] = biological target: Glc(b1-4)Glc
# Summary of the method: (§1)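 Glycan array binding is given as a within-array Z-score, which can be read as non-binding when negative. The arrays, 3228 of them, came from the Consortium for Functional Glycomics database and were retained only where the protein sequence was available. Z-scores were averaged across arrays of the same protein sequence at different concentrations or buffers and across linkers.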
# [2] = biological target: Glc(b1-6)Glc
# Summary of the method: as §1
# [3] = biological target: GlcA(b1-3)Gal
# Summary of the method: as §1
# [4] = biological target: GlcA(b1-3)GlcNAc
# Summary of the method: as §1
# [5] = biological target: GlcA(b1-6)Gal
# Summary of the method: as §1
# [6] = biological target: GlcA3S(b1-3)Gal(b1-4)GlcNAc(b1-2)Man
# Summary of the method: as §1
# [7] = biological target: GlcA3S(b1-3)Gal(b1-4)GlcNAc(b1-3)Gal(b1-4)Glc
# Summary of the method: as §1
# [8] = biological target: GlcNAc(a1-3)Gal(b1-4)GlcNAc
# Summary of the method: as §1
# [9] = biological target: GlcNAc(a1-4)Gal(b1-3)GlcNAc
# Summary of the method: as §1
# [10] = biological target: GlcNAc(a1-4)Gal(b1-4)GalNAc
# Summary of the method: as §1
# [11] = biological target: GlcNAc(a1-4)Gal(b1-4)GlcNAc
# Summary of the method: as §1
# [12] = biological target: GlcNAc(a1-4)Gal(b1-4)GlcNAc(b1-3)Gal(b1-4)Glc
# Summary of the method: as §1
# [13] = biological target: GlcNAc(a1-4)Gal(b1-4)GlcNAc(b1-3)Gal(b1-4)GlcNAc
# Summary of the method: as §1
# [14] = biological target: GlcNAc(a1-4)Gal(b1-4)GlcNAc(b1-3)Gal(b1-4)GlcNAc(b1-3)Gal(b1-4)GlcNAc
# Summary of the method: as §1
# [15] = biological target: GlcNAc(a1-4)Gal(b1-4)GlcNAc(b1-3)Gal(b1-4)[Fuc(a1-3)]GlcNAc(b1-3)Gal(b1-4)[Fuc(a1-3)]GlcNAc
# Summary of the method: as §1
# [16] = biological target: GlcNAc(a1-6)Gal(b1-4)GlcNAc
# Summary of the method: as §1
# [17] = biological target: GlcNAc(b1-2)Gal(b1-3)GalNAc
# Summary of the method: as §1
# [18] = biological target: GlcNAc(b1-2)Man(a1-3)[GlcNAc(b1-2)Man(a1-6)]Man(b1-4)GlcNAc(b1-4)GlcNAc
# Summary of the method: as §1
# [19] = biological target: GlcNAc(b1-2)Man(a1-3)[GlcNAc(b1-2)Man(a1-6)]Man(b1-4)GlcNAc(b1-4)[Fuc(a1-6)]GlcNAc
# Summary of the method: as §1
# [20] = biological target: GlcNAc(b1-2)Man(a1-3)[GlcNAc(b1-4)][GlcNAc(b1-2)Man(a1-6)]Man(b1-4)GlcNAc(b1-4)GlcNAc
# Summary of the method: as §1
# [21] = biological target: GlcNAc(b1-2)Man(a1-3)[GlcNAc(b1-4)][GlcNAc(b1-2)Man(a1-6)]Man(b1-4)GlcNAc(b1-4)[Fuc(a1-6)]GlcNAc
# Summary of the method: as §1
# [22] = biological target: GlcNAc(b1-2)[GlcNAc(b1-4)]Man(a1-3)[GlcNAc(b1-2)Man(a1-6)]Man(b1-4)GlcNAc(b1-4)GlcNAc
# Summary of the method: as §1
# [23] = biological target: GlcNAc(b1-2)[GlcNAc(b1-4)]Man(a1-3)[GlcNAc(b1-4)][GlcNAc(b1-2)Man(a1-6)]Man(b1-4)GlcNAc(b1-4)GlcNAc
# Summary of the method: as §1
# [24] = biological target: GlcNAc(b1-2)[GlcNAc(b1-4)]Man(a1-3)[GlcNAc(b1-4)][GlcNAc(b1-2)[GlcNAc(b1-6)]Man(a1-6)]Man(b1-4)GlcNAc(b1-4)GlcNAc
# Summary of the method: as §1
# [25] = biological target: GlcNAc(b1-2)[GlcNAc(b1-4)]Man(a1-3)[GlcNAc(b1-4)][GlcNAc(b1-2)[GlcNAc(b1-6)]Man(a1-6)]Man(b1-4)GlcNAc(b1-4)[Fuc(a1-6)]GlcNAc
# Summary of the method: as §1
# [26] = biological target: GlcNAc(b1-2)[GlcNAc(b1-6)]Man(a1-6)[GlcNAc(b1-2)Man(a1-3)]Man(b1-4)GlcNAc(b1-4)GlcNAc
# Summary of the method: as §1
# [27] = biological target: GlcNAc(b1-2)[GlcNAc(b1-6)]Man(a1-6)[GlcNAc(b1-2)Man(a1-3)]Man(b1-4)GlcNAc(b1-4)[Fuc(a1-6)]GlcNAc
# Summary of the method: as §1
# [28] = biological target: GlcNAc(b1-2)[GlcNAc(b1-6)]Man(a1-6)[GlcNAc(b1-4)][GlcNAc(b1-2)Man(a1-3)]Man(b1-4)GlcNAc(b1-4)GlcNAc
# Summary of the method: as §1
# [29] = biological target: GlcNAc(b1-3)Fuc
# Summary of the method: as §1
# [30] = biological target: GlcNAc(b1-3)Gal
# Summary of the method: as §1
# [31] = biological target: GlcNAc(b1-3)Gal(b1-3)GalNAc
# Summary of the method: as §1
# [32] = biological target: GlcNAc(b1-3)Gal(b1-4)Glc
# Summary of the method: as §1
# [33] = biological target: GlcNAc(b1-3)Gal(b1-4)GlcNAc
# Summary of the method: as §1
# [34] = biological target: GlcNAc(b1-3)Gal(b1-4)GlcNAc(b1-2)Man(a1-3)[GlcNAc(b1-3)Gal(b1-4)GlcNAc(b1-2)Man(a1-6)]Man(b1-4)GlcNAc(b1-4)GlcNAc
# Summary of the method: as §1
# [35] = biological target: GlcNAc(b1-3)Gal(b1-4)GlcNAc(b1-2)Man(a1-3)[GlcNAc(b1-3)Gal(b1-4)GlcNAc(b1-2)Man(a1-6)]Man(b1-4)GlcNAc(b1-4)[Fuc(a1-6)]GlcNAc
# Summary of the method: as §1
# [36] = biological target: GlcNAc(b1-3)Gal(b1-4)GlcNAc(b1-2)[GlcNAc(b1-3)Gal(b1-4)GlcNAc(b1-6)]Man(a1-6)[GlcNAc(b1-3)Gal(b1-4)GlcNAc(b1-2)Man(a1-3)]Man(b1-4)GlcNAc(b1-4)GlcNAc
# Summary of the method: as §1
# [37] = biological target: GlcNAc(b1-3)Gal(b1-4)GlcNAc(b1-3)Gal(b1-4)GlcNAc
# Summary of the method: as §1
binder,measurement,setting,value
B1,glycan array binding signal (z-score),[1],0.058
same,glycan array binding signal (z-score),[2],-0.244
same,glycan array binding signal (z-score),[3],-0.102
same,glycan array binding signal (z-score),[4],0.115
same,glycan array binding signal (z-score),[5],0.586
same,glycan array binding signal (z-score),[6],-0.547
same,glycan array binding signal (z-score),[7],-0.733
same,glycan array binding signal (z-score),[8],-0.681
same,glycan array binding signal (z-score),[9],-0.432
same,glycan array binding signal (z-score),[10],-0.65
same,glycan array binding signal (z-score),[11],-0.615
same,glycan array binding signal (z-score),[12],-0.784
same,glycan array binding signal (z-score),[13],-0.429
same,glycan array binding signal (z-score),[14],-0.057
same,glycan array binding signal (z-score),[15],0.216
same,glycan array binding signal (z-score),[16],-1
same,glycan array binding signal (z-score),[17],-0.485
same,glycan array binding signal (z-score),[18],-0.259
same,glycan array binding signal (z-score),[19],0.098
same,glycan array binding signal (z-score),[20],-0.495
same,glycan array binding signal (z-score),[21],-0.368
same,glycan array binding signal (z-score),[22],-0.62
same,glycan array binding signal (z-score),[23],0.219
same,glycan array binding signal (z-score),[24],-0.068
same,glycan array binding signal (z-score),[25],-0.701
same,glycan array binding signal (z-score),[26],-0.896
same,glycan array binding signal (z-score),[27],0.898
same,glycan array binding signal (z-score),[28],-0.884
same,glycan array binding signal (z-score),[29],1.35
same,glycan array binding signal (z-score),[30],-1.33
same,glycan array binding signal (z-score),[31],0.454
same,glycan array binding signal (z-score),[32],-0.511
same,glycan array binding signal (z-score),[33],-0.013
same,glycan array binding signal (z-score),[34],0.061
same,glycan array binding signal (z-score),[35],-0.001
same,glycan array binding signal (z-score),[36],-0.033
same,glycan array binding signal (z-score),[37],-0.752

# Three entries drawn at random from those above, as already listed:
binder,measurement,setting,value
B1,glycan array binding signal (z-score),[3],-0.102
same,glycan array binding signal (z-score),[15],0.216
same,glycan array binding signal (z-score),[35],-0.001
